This passage reports cell number change and AC50 results from PubChem BioAssay AID2685 (National Center for Advancing Translational Sciences (NCATS), 2010).

The other results are listed elsewhere or left out. Shown are side measurements of this screen, not its main read-out; they come without a call. Compounds called inactive in the main read-out are mostly missing here. The note in brackets gives the kind of curve behind each potency; many fits are weak.

By AC50 is commonly meant the concentration giving half of the maximal activity seen. Low readings indicate greater potency, high ones weaker potency.

This assay can be described thus: qHTS Assay for Lipid Storage Modulators in Drosophila S3 Cells.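 On cell number change: cells counted by Cell Tracker Red CMTPX staining in the red channel.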 Particulars: BODIPY lipid droplet fluorescence, 18-24 h; for cell number change: measured here: cell count max response, cells fed with added oleic acid. A digest of the protocol:
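Laser-scanning cytometry quantifies lipid droplet accumulation (500–530 nm total intensity; droplet/cell object ratio) in oleic acid-fed (400 uM added) Drosophila S3 cells treated with a concentration series. 20 uM Triacsin C defined 100% inhibition.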
On the technique in general: Quantitative high-throughput screening tests each substance at several concentrations.

Where [1] appears, read: measured here: lipid fluorescence (Fed channel) AC50, cells fed with added oleic acid.
Where [2] appears, read: measured here: cell number channel AC50, cells fed with added oleic acid.

Consider `CCCCn1c(N)c(N(CCC(C)C)C(=O)COC(=O)c2sccc2C)c(=O)[nH]c1=O`, for which the cell number change was -7.15%. The AC50 under setting [1] was 0.461 µM [falling, single point].
Consider `Cc1ccn2c(c1)nc(=O)c1cc(S(=O)(=O)N3CCCCC3)ccc12`, for which the cell number change is -10.7%. Under setting [1], the AC50 is 29.1 µM [falling, single point].
In the case of `Cc1ccsc1C(=O)NNC(=S)NCC(C)C`, the cell number change came to 33.2%.
Turning to `COc1cc(/C=C2\C(=O)N(c3ccc(NC(C)=O)cc3)N=C2c2ccccc2)ccc1O`, the cell number change is -0.113%. Moreover, under setting [2], the AC50 is 0.731 µM [falling, single point]. For the same compound, under setting [1], the AC50 is 29.1 µM [rising, single point].
For `Cc1ccsc1C(=O)N(c1nc2ccccc2s1)c1c(C)cccc1C`, the cell number change is -24.8%. In addition, under setting [1], the AC50 was 9.2 µM [falling, partial curve].
As to `O=C(c1ccccc1)c1c(O)cc(-c2ccccc2)oc1=O`, the AC50 under setting [1] is 20.6 µM [rising, single point].
As to `O=C(NC1CCSc2ccccc21)c1ccc(F)cc1` (stereo unspecified), the cell number change turned out to be 25.8%.
Turning to `Cc1cc(C)n2nc(CNS(=O)(=O)c3ccc(CC(C)C)cc3)nc2n1`, the cell number change worked out at 18.2%. Also, the AC50 under setting [1] was 20.6 µM [rising, partial curve, poor fit].
For `CC1C(c2ccccc2)=[N+]([O-])C2(CCCCC2)N1O` (stereo unspecified), the AC50 under setting [2] is 0.00461 µM [rising, full curve, poor fit].
As for `O=C(Nc1ccc(S(=O)(=O)N2CCCC2)cc1)c1ccc2c(=O)n3c(nc2c1)CCCCC3`, the cell number change was found to be 14.9%. For the same compound, the AC50 under setting [1] was 29.1 µM [rising, single point].
As for `COC(=O)c1cc(CNC(=O)c2ccc(N3CCCC3)c([N+](=O)[O-])c2)ccc1OC`, the cell number change was -8%. In addition, the AC50 under setting [1] is 3.16 µM [falling, single point].
For `CCOc1ccc(N(CC(=O)NCCSCc2ccccc2Cl)S(C)(=O)=O)cc1`, the cell number change is -38.1%. Also, the AC50 under setting [2] was 18.4 µM [falling, partial curve].
For the compound `CC(C)CNC(=O)c1cc([N+](=O)[O-])ccc1N1CCOCC1`, the cell number change was determined as 32.5%. Under setting [2], the AC50 was 29.1 µM [rising, single point]. The AC50 under setting [1] is 16.4 µM [rising, single point].
With `COc1ccc(N(C)C(=O)C2CCCN2S(=O)(=O)c2cccc3nsnc23)c(OC)c1` (stereo unspecified), the cell number change was -6.27%. In addition, the AC50 under setting [1] was 29.1 µM [rising, single point].
On to `CCOC(=O)NC1(NCc2ccccc2)Oc2ccccc2O1`, for which the cell number change was determined as 45.7%. For the same compound, the AC50 under setting [2] is 29.1 µM [rising, single point].
Turning to `Cc1ccc(C2(C)NC(=O)N(CC(=O)NNC(=O)c3ccccc3)C2=O)cc1` (stereo unspecified), the cell number change came to 16.8%. Besides, the AC50 under setting [1] was 0.731 µM [rising, full curve].
For the compound `O=C(NCCOc1ccc(F)cc1)C1CCC(=O)N(CCc2ccccn2)C1` (stereo unspecified), the cell number change was 1.49%. Besides, under setting [1], the AC50 was 6.51 µM [falling, single point].
On to `N#C/C(=C\c1ccco1)C(=O)Nn1cnnc1`, for which the cell number change was found to be 120%. Besides, the AC50 under setting [2] is 14.6 µM [rising, partial curve].
Regarding `Cc1cccnc1NC(=O)c1ccc(Cl)c(S(=O)(=O)N2CCCCC2)c1`, the AC50 was 0.0259 µM [rising, full curve, poor fit] under setting [2] and 0.00461 µM [rising, full curve, poor fit] under setting [1].
As for `O=C(NCc1ccccn1)C1CCN(S(=O)(=O)c2ccccc2C(F)(F)F)CC1`, the cell number change was found to be 2.64%. Besides, under setting [1], the AC50 was 0.103 µM [rising, full curve, poor fit].
On to `COc1cc2c(cc1OC)CN(c1ccc(C(F)(F)F)cn1)CC2`, for which the cell number change was -1.59%. The AC50 under setting [1] was 0.651 µM [falling, partial curve, poor fit].
Take `C/C(=N/NC(=O)c1cc2ccccc2cc1O)C1C(=O)c2ccccc2C1=O`: the cell number change stood at 14.8%. The AC50 under setting [1] was 7.31 µM [falling, partial curve].
Regarding `Cc1ccc(S(=O)(=O)N(C)C)cc1NC(=O)CN1CCN(Cc2ccccc2)CC1`, the cell number change was -13.3%. The AC50 under setting [2] is 4.11 µM [falling, single point].
For the compound `COc1ccc(CNC(=O)COC(=O)CCCOc2ccc(Cl)cc2Cl)cc1`, the cell number change came to 11.2%. Besides, the half-maximal activity concentration (AC50) under setting [2] is 0.58 µM [rising, single point].
Take `CN(C)/C=C/c1c([N+](=O)[O-])c2ccc(O)cc2n1-c1ccccc1`: the cell number change is -39.7%. The AC50 under setting [2] was 29.1 µM [falling, single point]. In addition, the AC50 under setting [1] was 18.4 µM [falling, single point].
With `Cn1c(=O)c2c(nc(CN3CCCCC3)n2CCc2ccccc2)n(C)c1=O`, the cell number change came to 14.5%.
For the compound `Cc1ccc(CNC(=O)C(=O)NCCC2CCCCN2S(=O)(=O)c2ccccc2)cc1` (stereo unspecified), the cell number change is -35.2%. Moreover, under setting [1], the AC50 is 29.1 µM [falling, partial curve, poor fit].
Take `COC(=O)c1sc(N2C(=O)C(=O)/C(=C(/O)c3ccccc3)C2c2ccco2)nc1C` (stereo unspecified): the cell number change is -7.84%. Besides, under setting [1], the AC50 was 0.103 µM [falling, full curve, poor fit].
For the compound `COC(=O)c1cn(C(=O)/C=C/c2ccc(OC)c(OC)c2)c2ccccc12`, the cell number change worked out at 89.2%. Further, the AC50 under setting [2] is 29.1 µM [rising, single point].
For the compound `CCCn1c(=O)c2c(c3ccccc31)OC(C)C(=O)N2` (stereo unspecified), under setting [2], the AC50 was 2.31 µM [rising, partial curve].
Turning to `CCOC(=O)C1CCCN(S(=O)(=O)Cc2ccc(Cl)cc2)C1` (stereo unspecified), the cell number change is -27.9%. In addition, the AC50 under setting [2] is 0.0731 µM [falling, full curve, poor fit].
For the compound `CC1CN(CC(O)COc2ccccc2C(C)(C)C)CC(C)O1` (stereo unspecified), the AC50 under setting [2] is 6.51 µM [falling, single point].
`CC(C)Oc1ccc(CNC2CCOC(C)(C)C2)cc1` (stereo unspecified): the cell number change is -1.12%. In addition, the AC50 under setting [1] was 20.6 µM [falling, single point].
Consider `CN1CN(C)C(c2ccncc2)=C1c1ccncc1`, for which the cell number change is -9.87%.
Take `CC1CCN(c2c(NCC3CCC(C(=O)NCc4ccccc4Cl)CC3)c(=O)c2=O)CC1` (stereo unspecified): the cell number change worked out at 38.5%. Also, the AC50 under setting [2] is 29.1 µM [rising, single point]. Further, the AC50 under setting [1] is 1.64 µM [falling, partial curve].
Regarding `O=C(NCCN1C(=O)S/C(=C/c2cccnc2)C1=O)c1cccs1`, under setting [1], the AC50 is 2.59 µM [falling, full curve].
On to `CCOc1ccc(-c2cn(-c3ccc(OC)cc3)c(SC)n2)cc1`, for which the cell number change was -43.3%. Moreover, the AC50 under setting [2] was 4.11 µM [rising, single point]. In addition, the AC50 under setting [1] is 16.4 µM [falling, partial curve].
Regarding `c1cc(Nc2ncnc3sc4c(c23)CCC4)ccn1`, the cell number change was found to be 3.5%. In addition, the AC50 under setting [2] is 3.26 µM [rising, partial curve].
Consider `Cn1c(SCC(=O)O)nc2ccccc2c1=O`, for which the cell number change is -6.14%. Further, under setting [1], the AC50 was 2.31 µM [falling, partial curve, poor fit].
As for `COc1ccc(-n2c(SCC(=O)Nc3ccc(C(=O)O)cc3)nnc2-c2ccccc2)cc1OC`, the cell number change came to 21.1%. Moreover, the AC50 under setting [1] is 18.4 µM [rising, partial curve, poor fit].
Regarding `COc1ccc(Nc2nc(N)nc(CSCCO)n2)cc1`, the cell number change was found to be 0.799%. In addition, the AC50 under setting [1] is 0.259 µM [falling, single point].
`Cc1ccn2c(/C=N/OCc3cccc(F)c3)c(-c3ccc(Cl)cc3)nc2c1`: the cell number change is -20.1%. In addition, under setting [1], the AC50 was 8.2 µM [falling, partial curve].
For `COc1ccc(/C=C2\SC(=S)N(CC(=O)NC3C=CS(=O)(=O)C3)C2=O)cc1` (stereo unspecified), the cell number change was -30.4%. The AC50 under setting [2] was 0.164 µM [falling, full curve, poor fit]. Moreover, the AC50 under setting [1] is 29.1 µM [falling, single point].
With `O=C(N1CCOCC1)C12CC3CC(C1)CC(c1ccccc1)(C3)C2`, the cell number change came out at 29.4%. Also, the AC50 under setting [1] was 18.4 µM [rising, single point].
As for `Cc1ccc(NC(=O)c2cc(S(=O)(=O)N3CCCCC3)cs2)cc1`, the AC50 under setting [1] was 6.51 µM [rising, single point].
Turning to `COc1ccc(Cl)cc1NC(=O)CN(C)C(=O)c1cc2c(s1)CCC(C)C2` (stereo unspecified), the cell number change was 45.8%. Also, under setting [2], the AC50 is 5.8 µM [rising, full curve, poor fit].
For the compound `CCc1ccc(CCC(=O)Nc2ccc(C)cc2C)o1`, the cell number change amounted to 0.948%. Besides, under setting [1], the AC50 is 2.91 µM [rising, full curve].
As to `O=C(NNC(=S)Nc1ccccc1)c1cc(Br)ccc1Cl`, the cell number change stood at 56.4%. Besides, the half-maximal activity concentration (AC50) under setting [2] is 29.1 µM [rising, single point].
On to `O=C(NC(=S)N(CCO)Cc1ccccc1)c1ccc(F)cc1Cl`, for which the cell number change was -13.5%. Moreover, under setting [1], the AC50 was 3.26 µM [falling, partial curve].
On to `OC1(c2ccc(Br)cc2)CCNCC1`, for which the cell number change is -37.9%. Under setting [2], the AC50 is 1.16 µM [falling, full curve]. Also, the AC50 under setting [1] is 29.1 µM [falling, partial curve].
As to `Cc1nn(CC(=O)NCC2CCCO2)c(=O)c2ccccc12` (stereo unspecified), the cell number change amounted to 0.287%.
On to `Cc1cc(C(=O)NC2CC2)c2ccccc2n1`, for which the cell number change is -4.82%. Also, the AC50 under setting [1] was 0.517 µM [falling, single point].
With `S=c1[nH]nc(Cn2cnc3ccccc32)n1-c1ccccc1`, the cell number change is -23.6%.
Consider `O=c1c(Cl)c(NCCCO)cnn1-c1nc2ccccc2[nH]1`, for which the cell number change is -65.6%. Also, the AC50 under setting [2] was 20.6 µM [falling, single point]. The AC50 under setting [1] is 18.4 µM [falling, single point].
For `CCOC(=O)c1cc2c(nc1C)-c1cc(Cl)cc(Cl)c1OC2O` (stereo unspecified), the AC50 under setting [1] is 2.06 µM [rising, partial curve].
For `O=C(CC1(O)C(=O)N(CCc2ccccc2)c2ccccc21)c1ccco1` (stereo unspecified), the cell number change amounted to 5.68%. Besides, the AC50 under setting [1] is 0.00461 µM [rising, full curve, poor fit].
Take `Cc1ccc(CN2CCC(n3nccc3NC(=O)CCOc3ccccc3)CC2)o1`: the cell number change came out at 31.2%. In addition, the AC50 under setting [2] is 32.6 µM [rising, single point].
Consider `CCOC(=O)c1cnn(-c2ccccc2)c1-n1cccc1C(=O)C(=O)N(C)C`, for which the cell number change is -41.2%. Under setting [2], the AC50 is 2.91 µM [falling, single point].
As to `CCOC(=O)c1sc(NC(=O)CSc2nnc(Cc3ccccc3)o2)c(C(=O)OCC)c1C`, the AC50 is 0.13 µM [rising, full curve, poor fit] under setting [2] and 0.517 µM [rising, full curve] under setting [1].
Turning to `CC(C)NC(=O)c1ccc(COc2cc(Cl)ccc2Cl)o1`, the cell number change was 2.82%. Moreover, under setting [2], the AC50 was 0.82 µM [falling, single point]. For the same compound, the AC50 under setting [1] is 0.731 µM [falling, full curve].
